Assay results: PubChem BioAssay AID2685 (National Center for Advancing Translational Sciences (NCATS), 2010)
The campaign covered roughly 320,000 compounds. About 2,100 (0.66%) were called active. The shares of active, inactive and inconclusive entries below differ from those in the screen. The call rests on the fitted dose curve; in most records, active means well fitted inhibition curve with a large enough effect in the signal ratio, with a control signal flat (not every such curve was filed as active); inconclusive means small, poorly fitted or top-dose-only effect, or effect the other way, or a change in a side signal; inactive means flat fitted curve, though single readings scatter; the % refers to the signal ratio. Potencies of inconclusive entries are doubtful fits and often do not repeat.

Assay: qHTS Assay for Lipid Storage Modulators in Drosophila S3 Cells
Details: BODIPY lipid droplet fluorescence, 18-24 h, cells fed with added oleic acid; lipid storage change, negative = inhibition: at 46.1 µM (top of the series) unless noted
Method in brief: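 Drosophila S3 cells loaded with oleic acid (400 uM, as added) and compounds at several concentrations; lipid droplets imaged by 488-nm laser-scanning cytometry, 500–530 nm intensity and object ratio to cell channel. Percent activity normalized to 20 uM Triacsin C.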
On the % scale 0 is the no-effect control and ±100 the full control effect; potency means the concentration at half of the fitted maximal effect.

Compound | lipid storage change, negative = inhibition | Potency
CCC1(NC(C)=O)CC2CC1CC2NC(C)=O (stereo not drawn) | inconclusive: -1.48% | 
N#CCSc1nc(-c2ccccc2)nc2ccccc12 | inconclusive: -31.6% | 
CCC(C(=O)N1CC2(C)CC1CC(C)(C)C2)N1C(=O)c2ccccc2C1=O (stereo not drawn) | inconclusive: -20.8% | 
Cc1ccc2[nH]c(C(=O)O)c(NC(=O)CN3CCN(c4cccc(C)c4C)CC3)c2c1 |  | inconclusive: 6.51 µM [falling, single point]
c1coc(Cn2nnnc2CN2CCN(C3CCCCC3)CC2)c1 | inconclusive: -2.38% | 
O=C(CCC(=O)N(Cc1ccco1)C(C(=O)NC1CCCC1)c1ccncc1)Nc1cccnc1 (stereo not drawn) | inconclusive: 55.5% | 
O=C(NN1C(=O)C2C3C=CC(C4CC34)C2C1=O)c1ccc(Br)cc1 (stereo not drawn) | inconclusive: -1.4% | 
Cc1cc2c(NC(=O)Nc3ccc(F)cc3)cccc2nn1 |  | inconclusive: 29.1 µM [cytotoxic, single point]
O=C(CSc1cccs1)Nc1ccc2ccccc2c1 | inconclusive: 110% | 
CCOC(=O)N1CCN(Cc2cc(=O)oc3cc4c(cc23)CCC4)CC1 | inconclusive: 19.8% | 
COc1ccc(N=C(c2ccccc2)c2c(C)[nH]n(-c3ccccc3)c2=O)c(OC)c1 | inconclusive: -37.9% | 
O=C(CN1CCCCCC1)Nc1ccccc1OC(F)F |  | inconclusive: 0.13 µM [activator, single point]
Cc1c2ccccc2cc[n+]1CCCS(=O)(=O)[O-] | inconclusive: -9.66% | 
O=C(O)c1ccc(NC(=O)c2ccc(Cl)cc2)c(NC(=O)c2ccc(Cl)cc2)c1 |  | inconclusive: 23.1 µM [activator, partial curve, poor fit]
CCn1cc(C(C)NC(=O)COc2ccc(Cl)cc2C)c(C)n1 (stereo not drawn) |  | inconclusive: 6.51 µM [rising, single point]
Cc1ccc2[nH]c(=O)c(CN(Cc3cccs3)Cc3nnnn3CC3CCCO3)cc2c1 (stereo not drawn) |  | inconclusive: 29.1 µM [rising, single point]
CC1CCc2sc(C(=O)NCC(c3ccco3)N3CCCCC3)cc2C1 (stereo not drawn) |  | inconclusive: 0.116 µM [activator, full curve, poor fit]
O=C(Nc1ccc(N2CCOCC2)cc1)C1CCN(S(=O)(=O)c2ccc3c(c2)OCCO3)CC1 |  | inconclusive: 0.0041 µM [activator, full curve, poor fit]
COc1ccc(Cl)cc1Nc1nc2ccc(C)cc2n2cnnc12 | inconclusive: -33% | 
Cc1cc(C(=O)Nc2ccccc2[N+](=O)[O-])cs1 | inconclusive: -33.9% | 
COc1ccc(CN(N=O)C2CC(=O)N(c3ccc(OC)cc3)C2=O)cc1 (stereo not drawn) | inconclusive: 14.2% | 
Cc1nc2ccccc2c2oc(C(=O)NCCCN3CCC(C)CC3)cc12 | inconclusive: -7.25% [at 9.22 µM] | 
COCCNC(=O)COc1coc(CN2CCN(Cc3ccccc3)CC2)cc1=O | inconclusive: -100% | 
Cc1cc(NC(=O)CSCC(=O)N(C)Cc2c(F)cccc2Cl)no1 |  | inconclusive: 5.17 µM [falling, partial curve]

Reprinted at random: 2 compounds from above
Compound | lipid storage change, negative = inhibition | Potency
CC1CCc2sc(C(=O)NCC(c3ccco3)N3CCCCC3)cc2C1 (stereo not drawn) |  | inconclusive: 0.116 µM [activator, full curve, poor fit]
Cc1ccc2[nH]c(C(=O)O)c(NC(=O)CN3CCN(c4cccc(C)c4C)CC3)c2c1 |  | inconclusive: 6.51 µM [falling, single point]

Further results

Compound | lipid storage change, negative = inhibition | Potency
N#CCSc1nc2ccccc2c(=O)n1CCC(=O)NCCc1ccccc1 |  | inconclusive: 0.92 µM [activator, partial curve]
C/C(=N/NC(=O)c1cccs1)c1ccc(NC(=O)COc2ccc(Cl)cc2)cc1 | inconclusive: -2.5% | 
CN1C(=O)C(c2ccccc2[N+](=O)[O-])C(=O)c2ccccc21 (stereo not drawn) | inconclusive: -25.1% | 
CN(C)C(CNC(=O)CCOc1ccccc1)c1ccco1 (stereo not drawn) |  | inconclusive: 2.06 µM [falling, single point]
CN(C(=O)CN1CCN(c2cnn(-c3ccccc3)c(=O)c2Cl)CC1)C1CCS(=O)(=O)C1 (stereo not drawn) |  | inconclusive: 29.1 µM [cytotoxic, single point]
O=C(Nc1ccc(C(=O)O)cc1)/C(=C\c1ccc(F)cc1)NC(=O)c1ccco1 | inconclusive: 159% | 
CC(C)Oc1cccc(C(=O)NC(=S)Nc2ccccc2)c1 | inconclusive: 26% | 
O=C(OCC(=O)N1CCN(c2cccc(Cl)c2)CC1)c1ccco1 | inconclusive: 3.32% | 
Cc1ccc(-c2csc(Cc3nc(-c4ccc5c(c4)CCC(=O)N5)cs3)n2)cc1 |  | inconclusive: 0.731 µM [activator, single point]
CC1CCN(C(=O)CSc2nnc(CNC(=O)c3ccc(F)cc3)o2)CC1 | inconclusive: -2.9% | 
COc1ccccc1C(=O)CSc1nccn1C |  | inconclusive: 23.1 µM [falling, single point]
CCOC(=O)c1sc(Nc2nc(OC)cc(OC)n2)nc1C | inconclusive: -32.6% | 
Cc1ccsc1C1C2=C(CC(C)(C)CC2=O)Nc2ncnn21 (stereo not drawn) | inconclusive: 59.5% | 
C=CCn1c(SCC(=O)NCC2CCCO2)nc2scc(-c3ccc(OC)cc3)c2c1=O (stereo not drawn) |  | inconclusive: 0.0116 µM [falling, full curve, poor fit]
Cc1csc(N/N=C/c2ccc([N+](=O)[O-])cc2)n1 |  | inconclusive: 0.82 µM [falling, full curve, poor fit]
CC(C)CNC(=O)c1cccc(NC(=O)CCc2ccccc2)c1 | inconclusive: -4.64% | 
O=C(NCC(=O)N1CCN(C(=O)c2ccccc2)CC1)c1ccc(Cl)cc1Cl |  | inconclusive: 6.51 µM [activator, single point]
O=C(N/N=C/c1ccccc1C(=O)O)c1cccc(S(=O)(=O)Nc2cc(Cl)ccc2Cl)c1 | inconclusive: 37% | 
CCC(C)NC(=O)c1cccc(OCc2c(C)noc2C)c1 (stereo not drawn) | inconclusive: 47.4% | 
COc1ccc2cc(C(=O)N3CCCCCC3)sc(=O)c2c1OC | inconclusive: -11% | 
COc1ccc(CCNC(=O)c2ccc3ccccc3n2)cc1OC |  | inconclusive: 6.51 µM [falling, single point]
COC(=O)c1ccc(OC)c(CSc2nnc(COc3ccc(OC)cc3)o2)c1 | inconclusive: 59.3% | 
COc1cc(C)ccc1OCCCCNCc1ccccc1 | inconclusive: 2.2% | 
C/C(=N\NC(=O)c1ccccc1)c1nc2ccccc2n1C |  | inconclusive: 0.146 µM [activator, full curve, poor fit]
